Values from PubChem BioAssay AID504808 (Drosophila RNAi Screening Center, 2011)

- Screen: 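Chromatin factors that keep E2F targets switched off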 (primary screen)
- System: Drosophila S2 cells
- Reagents: long dsRNA against Drosophila genes
- Measured: 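Firefly luciferase driven by E2F sites, normalised to Renilla luciferase on the same minimal promoter, measured by plate reader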
- Scale: E2F firefly: higher = more E2F reporter activity; Renilla normaliser: higher = more normaliser reporter signal
- Rule for the call: 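a knock-down counted as active when the firefly/Renilla E2F signal rose above 50%, a threshold chosen arbitrarily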
The screen tested about 21,000 reagents; shown is an unselected part of those that have a named target and a result. Of all reagents, 18 (0.084%) were called active. 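Raw counts without plate normalisation, one of two replicates; the ratio scores behind the calls were not deposited.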 Names joined by + are all predicted targets of the reagent. The record does not give: the amount of reagent, the time to read-out.

Gene	dsRNA	E2F firefly, rep 1	Renilla normaliser, rep 1	Outcome
CG14852	DRSC14976	1.09e5	4712	inactive
klg (klingon)	DRSC13591	65559	2481	inactive
klg (klingon)	DRSC16978	99002	6413	inactive
Jasper (JIL-1 anchoring and stabilizing protein)	DRSC16352	1733	908	inactive
CG4116	DRSC18348	1.26e5	6551	inactive
CG33704	DRSC03838	1.20e5	5074	inactive
CG5850	DRSC02905	79088	3393	inactive
CG14855	DRSC14979	1.07e5	5317	inactive
l(2)k09022 (lethal (2) k09022)	DRSC02108	93686	4070	inactive
CG3649	DRSC04400	93835	3842	inactive
Cht11 (Chitinase 11)	DRSC18270	51600	3377	inactive
Gli (Gliotactin)	DRSC03332	1.15e5	4284	inactive
CycH (Cyclin H)	DRSC11861	1.32e5	7182	inactive
Kr-h2 (Kruppel homolog 2)	DRSC03356	1.43e5	5251	inactive
nvy (nervy)	DRSC04705	92536	3347	inactive
AnxB11 (Annexin B11)	DRSC19331	6718	812	inactive
Usp14 (Ubiquitin specific protease 14)	DRSC02853	77879	3450	inactive
Fbw5 (F-box and WD repeat domain containing 5)	DRSC03146	1.47e5	4862	inactive
CG33268	DRSC10143	1.19e5	6757	inactive
CG10073	DRSC05961	1.34e5	4310	inactive
twr (twisted bristles roughened eye)	DRSC12491	1.37e5	7166	inactive
Dd (Dullard)	DRSC20539	1.96e5	5656	inactive
CG3502	DRSC04381	79241	3620	inactive
CG4630	DRSC06874	118	29	inactive
LManI (Lysosomal alpha-mannosidase I)	DRSC02838	1.46e5	5658	inactive
Eaat1 (Excitatory amino acid transporter 1)	DRSC03321	1.67e5	5255	inactive
pdm3 (pou domain motif 3)	DRSC06076	1.50e5	5021	inactive
pdm3 (pou domain motif 3)	DRSC06490	1.52e5	5176	inactive
CG9630	DRSC16527	73220	3893	inactive
CG6800	DRSC16119	1.65e5	7577	inactive
Ir20a (Ionotropic receptor 20a)	DRSC20506	1.27e5	6270	inactive
CG5321	DRSC19940	2.29e5	5946	inactive
LRR (Leucine-rich repeat)	DRSC06444	1.48e5	5278	inactive
Ugt316A1 (UDP-glycosyltransferase family 316 member A1)	DRSC10376	1.40e5	6823	inactive
Mst84B (Male-specific transcript 84B)	DRSC12579	1.35e5	6630	inactive
CDase (Ceramidase)	DRSC14932	1728	856	inactive
Mal-A5 (Maltase A5)	DRSC07232	3245	212	inactive
cuff (cutoff)	DRSC06315	92268	3746	inactive
Pngl (PNGase-like)	DRSC04914	1.11e5	4792	inactive
CG9632	DRSC16528	1.09e5	5909	inactive
CG14868	DRSC14991	46542	3772	inactive
DCX-EMAP	DRSC10012	1.59e5	6620	inactive
DCX-EMAP	DRSC10013	1.73e5	5699	inactive
CG11816	DRSC19428	89882	4512	inactive
pug (pugilist)	DRSC17036	1.41e5	6674	inactive
Ubc4 (Ubiquitin conjugating enzyme 4)	DRSC11312	74866	3715	inactive
CG42755 (retired record)	DRSC09105	1.29e5	5030	inactive
CG42755 (retired record)	DRSC09106	1.33e5	5104	inactive
CG14659	DRSC12245	1.18e5	5597	inactive
HHEX (Hematopoietically expressed homeobox)	DRSC16186	1.15e5	6696	inactive
Datp (Diadenosine tetraphosphatase)	DRSC01102	1.39e5	6163	inactive
Sld5	DRSC14892	1.29e5	6622	inactive
Bx42	DRSC17743	4651	780	inactive
Spn28Dc (Serpin 28Dc)	DRSC03029	1.29e5	5248	inactive
CG18744	DRSC15381	1.40e5	6807	inactive
Ugt317A1 (UDP-glycosyltransferase family 317 member A1)	DRSC04470	1.15e5	4778	inactive
Pex11c (Peroxin 11c)	DRSC14677	1.04e5	5935	inactive
Pfdn4 (Prefoldin 4)	DRSC09761	89113	3672	inactive
CG14803	DRSC18556	80319	4029	inactive
CG42372 + CG30100	DRSC05602	1.58e5	5555	inactive
Rm62	DRSC12365	54414	3496	inactive
CG42336	DRSC05273	1.25e5	5205	inactive
CG42336	DRSC06332	1.04e5	4079	inactive
CG42336	DRSC06333	1.09e5	4192	inactive
Cka (Connector of kinase to AP-1)	DRSC03476	1.46e5	4971	inactive
CG7299	DRSC03043	1.64e5	4783	inactive
CG11961	DRSC06099	77714	3757	inactive
Mvb12 (Multivesicular body subunit 12)	DRSC20027	1.56e5	5826	inactive
bgm (bubblegum)	DRSC03495	62332	3396	inactive
Syx6 (Syntaxin 6)	DRSC07032	2924	208	inactive
CG4293	DRSC18557	1853	948	inactive
nonA-l (nonA-like)	DRSC17017	1.10e5	5844	inactive
CG1299	DRSC08300	99833	4082	inactive
Hsp67Ba (Heat shock gene 67Ba)	DRSC11191	1.06e5	5762	inactive
CG1635	DRSC15131	1936	968	inactive
CG15145	DRSC02446	1.08e5	4561	inactive
Bhmt (Betaine-homocysteine S-methyltransferase)	DRSC02079	1.01e5	4199	inactive
CG6454	DRSC16044	61818	3108	inactive
dnt (doughnut on 2)	DRSC03522	77506	3450	inactive
CG8197	DRSC07105	1.39e5	4554	inactive
CG33969	DRSC11777	1.29e5	6211	inactive
RacGAP84C (Rac GTPase activating protein at 84C)	DRSC12630	1.25e5	6292	inactive
ttm50 (tiny tim 50)	DRSC18587	1771	844	inactive
ics (icarus)	DRSC01878	85464	3218	inactive
